# In PubChem BioAssay AID1508600 (Functional Genomics Laboratory (NCATS/FGL), 2020):
# Screen size: about 53,000 sequences; about 3,700 (7%) were called active.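 The calls were made as follows: active = gene knockdowns whose robust z-score for IL-1 alpha signal is at least 2 or at most -2, so actives lie on both sides; inactive = the rest.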 The list shows a part of the results.
# Experiment: Components of the Cytosolic LPS Sensing Pathway: Gene Identification via Genome-wide siRNA Screen;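 also: robust z of the log signal after scaling to non-targeting control siRNA wells of the plate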
# Settings: RAW264.7 macrophages, IL-1a HTRF, actives lie on both sides, screened at 100 nM (by protocol), cells primed 5 h with Pam3CSK4 first
# In short: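 Mouse macrophage line RAW264.7 is transfected with siRNA (100 nM final), grown 48h, primed with TLR ligand Pam3CSK4 5 h and given intracellular LipidA 24 h. IL-1a in supernatant is read by HTRF and viability by luminescence.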
row,Sequence,z-score
1,GGCAUGAUGAUAUUUGAAATT against Glrp1,inactive: -0.142
2,CCUGUACCUGACCAAACCUTT against Socs2,inactive: -0.937
3,GGUCAUGAUGAAUGAGACUTT against Cstf1,inactive: 1.68
4,GAAGCCUAACCUCACCCUGTT against Ang,inactive: -0.781
5,GGAAUUAAUGGCAUAGACUTT against Cert1,inactive: 0.521
6,GGGUUUAGACGUAGAUUCUTT against Rpl17,inactive: -0.525
7,GCGUGUAUACCAGCCUUACTT against Egfl7,inactive: 0.0437
8,CGCCAUCAAAUAUGAAGCATT against Vps4a,inactive: -0.44
9,GGUCAUCUUACAGUUUAAATT against Smap2,inactive: 0.593
10,CCUUCAGUGCUGUAGUGUATT against Rasl10b,inactive: 0.37
11,GGGAGAGAAAUCCCAUUCUTT against Bsnd,inactive: -0.992
12,GCCUAUUGGCCUGAUAUGUTT against Gpr141b,inactive: 0.173
13,GGAAGAGGUUCAGAACAGATT against Spaca1,inactive: 1.19
14,GGUUCUAUUUGUGAAAAGUTT against Adam10,inactive: 0.783
15,GGAUGCUGGCUGAUUUUCUTT against Olfr1019,inactive: 0.368
16,GGCAACGGAAGAAAAUUAATT against 4930429B21Rik,inactive: -1.26
17,GGAAUUUGGUCUAUGCUUGTT against Stra6,inactive: 0.806
18,GGACGACUGGAAGUUUUCUTT against 5830411N06Rik,active: 3.95
19,CGACAUGGAGACAAUCUAUTT against Ptges,inactive: -0.249
20,GGUCAUCCUCAAGUCUCCUTT against Stmn3,active: -2.28
21,GGACGAUGAAGACAGCAAGTT against Scn8a,inactive: -0.62
22,GGUGUUGCUGUGUUUUAUATT against Olfr1259,inactive: 0.964

# Random excerpt: 4 records from the list, in no set order.
row,Sequence,z-score
8,CGCCAUCAAAUAUGAAGCATT against Vps4a,inactive: -0.44
17,GGAAUUUGGUCUAUGCUUGTT against Stra6,inactive: 0.806
7,GCGUGUAUACCAGCCUUACTT against Egfl7,inactive: 0.0437
12,GCCUAUUGGCCUGAUAUGUTT against Gpr141b,inactive: 0.173

# Following part

row,Sequence,z-score
1,GGGAAAAAGAGCUUUUAGCTT against Helt,inactive: -0.552
2,GCCAGAGAUUCCUCAACGATT against Rpp21,active: -2.48
3,GGGUGGUUUUAGUGUACUATT against Mrgpra7,inactive: -0.548
4,GGUUCCAAGAGACUGAAAGTT against Hbq1b,inactive: -0.719
5,GGUUUGUGUCCAGCUGCUUTT against Olfr502,inactive: 1.24
6,GGAAUGUUAAUGAUGCAGATT against Nmb,inactive: -0.656
7,GGGAUUGUGAAUUUCAUGUTT against Gca,inactive: 1.3
8,CGAUCAACAAGAAAAAGCUTT against Lcp1,inactive: 0.246
9,GAGGGUGACCGCUUCAGAATT against Scn4b,inactive: 1.56
10,CUUUGCUCUACCUUUCAGCTT against Olfr657,inactive: 1.5
11,GGCACAUAGCCAUACCAGATT against Fbxw17,inactive: 0.0511
12,GGAUUGGCAACCUCCAUUUTT against Kdm5a,inactive: -0.312
13,GGUAUCCAUGUCAUGCUCUTT against Cyp4a12b,inactive: -1.95
14,GGUAAUGAUACCUUGAAUGTT against H60a,active: 2.11
15,GGUUCACAGAAUUUAAGUGTT against Clec4a2,inactive: 0.896
16,GAUACGAGGAAAUCGUUAATT against Eef1a1,inactive: 0.419
17,GGGAUGUUUUGUUUUUAACTT against Mlc1,inactive: 0.384
18,GGACUUCAAAUGCUGUGGCTT against Tspan11,inactive: -1.1
19,GGGACAGAUCUGAACCUUUTT against Hbegf,inactive: 1.54
20,GGCAAACAACUGAAUAAGGTT against Pbsn,inactive: -0.611
21,GGUUUGUCAACAUUGCUGATT against Kdm4a,inactive: 0.203
22,GAACACCCUGCCGACCAAATT against Tmsb10,inactive: -0.242

row,Sequence,z-score
1,GACCACUUCCUUCUAUGCCTT against Slc35c1,active: -2.07
2,GGACAUUGUUGUCCAAACUTT against Sptb,active: -2.24
3,GGUCUUAUUUUGAAGUGUUTT against Cybb,inactive: 0.013
4,GGAUGUGCCCGAUAUUCCATT against Gtpbp1,inactive: 0.853
5,GCUGGAUCUUUGAAUGAGGTT against Olfr910,inactive: -1.01
6,GCUUGUUAUGUCACAUAUCTT against Pdcl3,inactive: 0.208
7,GCAGCAUUGACUGAAGAUCTT against Lce1m,inactive: -0.316
8,GCCUUACCGUCGAGGGUUUTT against Plpp3,inactive: 1.44
9,GCAGAAGUAUUACUGGAUGTT against Olfr572,inactive: 0.841
10,CCACAUCCUGACUACUACATT against Sumo2,inactive: -1.14
11,GGAAAAAGUUGCUCAAAAUTT against Mrps15,inactive: 0.652
12,GGAAUUUCUGGAGAAACUUTT against Lypla2,inactive: -0.186
13,GGUCCAAGUCCGAAAAUAUTT against Gpr108,inactive: 0.442
14,GAGUGCUACAUUACGUACCTT against Krtap4-16,inactive: -1.12
15,CCUAUAACAUCCACCUUCATT against Yipf3,inactive: -0.508
16,GGACAGAUUCGACAAAGAGTT against Olfr1535,inactive: -0.193
17,GGUCUCCAAGACGACAUAGTT against Snrnp27,inactive: -1.92
18,GCCGUUCUGCUAUCACAACTT against Scrn2,inactive: -0.531
19,CCCACAUCAUUGAGAUUCUTT against Olfr1508,inactive: -1.25
20,GCUCACCGGGAUCAUUCAATT against Eri3,inactive: 0.373
21,GGAGUUAUUAACUGAAGAGTT against Cyp2c55,inactive: 0.0702
22,GGACCAUGGAUAUUUAGCATT against Sms,inactive: -0.774

row,Sequence,z-score
1,GGAGAAAGUCCCAUUAGAGTT against Vwa5a,inactive: -0.289
2,GCGGCACACCCUUAUUACATT against Sf1,inactive: -0.713
3,CGGAGGUGGCUAUAAAAAUTT against Sik2,inactive: 0.0967
4,GUUUUGUUUCAGAGCAGAATT against Olfr900,inactive: -0.134
5,GGUGACAGAUGUUUAUGAGTT against Ccdc28b,inactive: -1.91
6,CGAAAGAUCUAAAUCAGAATT against Map3k4,inactive: 1.62
7,GGGCUUCGGGUUAAGAAGGTT against Cd40,inactive: -1.15
8,GGUAGAAGAGUCUGAUCAUTT against Sfrp1,inactive: -0.0589
9,GCUUCCUCUACGACUACUATT against Grhl3,inactive: 0.294
10,GCCCAAGUAUUUUAUUUCATT against Asb2,inactive: 0.358
11,GGACAUAAGAGAAUGGUCATT against Lpp,active: 2.07
12,GCCCUCAUUCAACACAUAATT against Clca1,inactive: -0.0404
13,GGUUGAGUUGGAUGACCUUTT against Lsm10,inactive: -1.91
14,GGACGAACUGAAGCCCUUATT against Rai2,inactive: 0.488
15,GGAAUAUUACCAGUCGGAATT against Marveld3,inactive: 0.469
16,GGUCAUCGAGGCUGACUUGTT against Slc39a3,inactive: -0.956
17,GGACACUUGAUAAAUCUUCTT against Afg1l,inactive: 1.42
18,GGCCACUUGACACUUGGUUTT against Pcdha4,inactive: 0.873
19,CCUUCAUCAUUACUCUUCUTT against Olfr780,inactive: 0.251
20,GCCAGACUUUGUUUUUGCUTT against Pramel37,inactive: -0.587
21,CGGUUUGCCAAAGUACACATT against Exosc1,inactive: -0.0103
22,GGAUGAGCAUAAAAGUCCUTT against Atf7ip,inactive: -0.536

# Nothing new here: entries from further up.
row,Sequence,z-score
17,GGGAUGUUUUGUUUUUAACTT against Mlc1,inactive: 0.384
18,GGACUUCAAAUGCUGUGGCTT against Tspan11,inactive: -1.1
19,GGGACAGAUCUGAACCUUUTT against Hbegf,inactive: 1.54
20,GGCAAACAACUGAAUAAGGTT against Pbsn,inactive: -0.611

# Later entries:

row,Sequence,z-score
1,GCCAGGAGUACUGUAUAUATT against Spint1,inactive: -0.366
2,GGAUGUGAUAACUUUUCUATT against Csf2rb2,inactive: -0.696
3,GUUUGAGACGGAGCAGAGCTT against Krt14,inactive: 0.919
4,CGUAGAAGAGUACAUGAUUTT against Pdcd10,inactive: -0.526
5,GGAAAUGCGACGAGUAUAUTT against Slc38a1,inactive: 0.509
6,GGAGGACGUAACUAAAUCATT against Napepld,inactive: -0.934
7,GGACAAAUCAGUUCUGCGUTT against Car13,inactive: 0.105
8,GCUGGACUUCUGUGCUUCUTT against Olfr787,inactive: 0.223
9,GGAGGAACAGCAGAGAAGUTT against Crocc,inactive: -1.15
10,CGUGAUGGGACUUGAGAAGTT against Teddm1a,inactive: -0.454
11,GGCAGUGACCCUAGUUUAUTT against Lhx1,inactive: 0.545
12,GCAGGUAUGAUGAAGGUUCTT against Recql5,inactive: -0.232
13,GCUACAGUACCCAUACUAGTT against 8030451A03Rik,inactive: 1.15
14,CGGCGGCAACAAUAACAAGTT against C1ql2,inactive: 0.42
15,GGCCAAGCUGAAGAAAAUGTT against Ripor2,inactive: -1.72
16,GGGACCUUGAUCAAAACCUTT against Gp5,inactive: -0.215
17,GCUGUACCACAACUAGUCATT against Cdc7,inactive: 0.977
18,GGCUGUUCUCUAGAUGAAUTT against 1810065E05Rik,inactive: -1.54
